In patent publication US5773411A (The DuPont Merck Pharmaceutical Company, priority 1994, dated 1998) one finds step yield and cyclisation yield data, which are given here for ten substances.

This series can be described thus: general procedure: peptide synthesis; Oxime resin (substitution level=0.96 mmol/g); HBTU, TBTU. The conditions noted are these: TFA salt; for cyclisation yield: cyclisation step.
The mark [1] stands for this setting: late stage modification step, calculated as the acetate salt.

Some peptides are written in HELM: one residue between dots, names in brackets for other building blocks, links after the first $.

With “4'-Nitrobenzophenimino D-Val-N(Me)Arg(Tos)-Gly-Asp(CHX)-2-amino-4-thiazoleacetate trifluoroacetate salt”, the step yield (late stage modification step) is recorded as 94%. Consider “6-(BOC-D-Val-NMeArg(Tos)-Gly-Asp(OCHX))Aminomethyl-2-pyridinecarboxylicacid”, for which the step yield (coupling step) was determined as 99% yield.

With “Boc-D-Val-MeArg (Tos)-Gly-Asp (Chx)-AMTC-Ox”, for the setting “coupling step”, the step yield came to 59%. “Cyclo(6-(D-Val-NMeArg(Tos)-Gly-Asp(OCHX)) Aminomethyl-2-pyridinecarboxylate)”: the cyclisation yield is 27%. In addition, the step yield (late stage modification step) is on record as 96%. On to “H2 N-D-Val-MeArg(Tos)-Gly-Asp(Chx)-AMTC-Ox trifluoroacetate salt”, for which the step yield (late stage modification step) came out at 68%.

In the case of “PEPTIDE1{[dV].[NMeArg].G.D.[AMFur]}$PEPTIDE1,PEPTIDE1,1:R1-5:R2$$$V2.0”, the step yield under setting [1] is 91%; the step yield entry (late stage modification step, overall) is reported as “overall yield 40%”; the step yield (purification step) is 44% recovery. “PEPTIDE1{[dV].[NMeArg].G.D.[AMPic]}$PEPTIDE1,PEPTIDE1,1:R1-5:R2$$$V2.0”: the step yield under setting [1] is given as 60%. Take “PEPTIDE1{[dV].[NMeArg].G.D.[AMTC]}$PEPTIDE1,PEPTIDE1,1:R1-5:R2$$$V2.0”: the step yield (late stage modification step) was found to be 46%. Turning to “cyclo-(D-Val-N(Me)Arg(Tos)-Gly-Asp(CHX)-2-amino-4-thiazoleacetate)”, the cyclisation yield is reported as 40%. With “cyclo-D-Val-MeArg(Tos)-Gly-Asp(Chx)-AMTC”, the cyclisation yield is on record as 31%.
